No constants are given. Whether binding was seen depends on the method and setting. Binding seen in cells or lysates may run through a third protein. Some binding calls cover weakened binding; strength is not graded here.
T1: Cdc16-TAP (S. cerevisiae (endogenous in yeast)) (UniProt P09798)
T1 sequence: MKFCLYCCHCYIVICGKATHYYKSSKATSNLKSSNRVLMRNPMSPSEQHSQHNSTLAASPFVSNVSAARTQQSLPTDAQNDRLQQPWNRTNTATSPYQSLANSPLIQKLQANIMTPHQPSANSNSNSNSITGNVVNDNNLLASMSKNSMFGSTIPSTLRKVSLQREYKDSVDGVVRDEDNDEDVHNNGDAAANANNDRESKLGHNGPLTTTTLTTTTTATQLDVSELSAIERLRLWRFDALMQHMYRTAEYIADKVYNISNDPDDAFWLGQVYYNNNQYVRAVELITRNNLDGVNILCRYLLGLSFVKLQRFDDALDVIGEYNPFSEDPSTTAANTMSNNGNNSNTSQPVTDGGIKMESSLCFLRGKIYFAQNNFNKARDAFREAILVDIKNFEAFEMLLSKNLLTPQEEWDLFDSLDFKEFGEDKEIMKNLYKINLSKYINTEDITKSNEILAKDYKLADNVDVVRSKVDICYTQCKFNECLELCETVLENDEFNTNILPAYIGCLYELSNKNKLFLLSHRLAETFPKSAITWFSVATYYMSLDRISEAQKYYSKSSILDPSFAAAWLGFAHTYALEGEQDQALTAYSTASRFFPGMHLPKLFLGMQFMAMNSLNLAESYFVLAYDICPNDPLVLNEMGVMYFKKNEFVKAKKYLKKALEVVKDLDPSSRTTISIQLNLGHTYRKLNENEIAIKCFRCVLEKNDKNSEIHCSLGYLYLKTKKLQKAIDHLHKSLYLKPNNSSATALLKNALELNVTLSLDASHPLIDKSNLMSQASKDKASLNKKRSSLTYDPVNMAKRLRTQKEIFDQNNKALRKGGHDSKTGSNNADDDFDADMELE

B1: Cdc27 (protein, UniProt P38042 1-758)
chain: MAVNPELAPFTLSRGIPSFDDQALSTIIQLQDCIQQAIQQLNYSTAEFLAELLYAECSILDKSSVYWSDAVYLYALSLFLNKSYHTAFQISKEFKEYHLGIAYIFGRCALQLSQGVNEAILTLLSIINVFSSNSSNTRINMVLNSNLVHIPDLATLNCLLGNLYMKLDHSKEGAFYHSEALAINPYLWESYEAICKMRATVDLKRVFFDIAGKKSNSHNNNAASSFPSTSLSHFEPRSQPSLYSKTNKNGNNNINNNVNTLFQSSNSPPSTSASSFSSIQHFSRSQQQQANTSIRTCQNKNTQTPKNPAINSKTSSALPNNISMNLVSPSSKQPTISSLAKVYNRNKLLTTPPSKLLNNDRNHQNNNNNNNNNNNNNNNNNNNNNNNNIINKTTFKTPRNLYSSTGRLTTSKKNPRSLIISNSILTSDYSITLPEIMYNFALILRSSSQYNSFKAIRLFESQIPSHIKDTMPWCLVQLGKLHFEIINYDMSLKYFNRLKDLQPARVKDMEIFSTLLWHLHDKVKSSNLANGLMDTMPNKPETWCCIGNLLSLQKDHDAAIKAFEKATQLDPNFAYAYTLQGHEHSSNDSSDSAKTCYRKALACDPQHYNAYYGLGTSAMKLGQYEEALLYFEKARSINPVNVVLICCCGGSLEKLGYKEKALQYYELACHLQPTSSLSKYKMGQLLYSMTRYNVALQTFEELVKLVPDDATAHYLLGQTYRIVGRKKDAIKELTVAMNLDPKGNQVIIDELQKCHMQE
B2: Apc9 (protein, UniProt Q12107 1-265)
chain: MNQNGDKNEGKLFQLPSLPPWKTPRFNKANFNNFTTPLRKRSTRVINDDSMPITGEVLEERTADDLYGINMDVDEVDYLNTLSHIEEEKQYDYSPFCERNTLRESRIDSFLKAERAAHCLVFHKVGHLDGIDSYRPDIDIMCGEEANKYDSANPEGNGSMLLESVPGCNKEDLERLSRREFVTNSKPNMRRLDDIINHETNALKSFWNDSGLVNSLQSHHLHEEYLLLQEELKNVYKIKCHDRVPIESLRDKCRRHYSNEDSSFL
B3: Cdc23 (protein, UniProt P16522 1-626)
chain: MNDDSQDKIIHDIRIQLRKAATELSRWKLYGSSKWAAEALAGLAEAIDVDQTHSLADESPLRNKQGVPKQMFEIPQNGFGLSETEYDLYLLGSTLFDAKEFDRCVFFLKDVTNPYLKFLKLYSKFLSWDKKSQESMENILTTGKFTDEMYRANKDGDGSGNEDINQSGHQRANLKMVSNEHESQSNISSILKEINTFLESYEIKIDDDEADLGLALLYYLRGVILKQEKNISKAMSSFLKSLSCYSFNWSCWLELMDCLQKVDDALLLNNYLYQNFQFKFSENLGSQRTIEFNIMIKFFKLKVFEELNGQLEDYFEDLEFLLQVFPNFTFLKAYNATISYNNLDYVTAESRFDDIVKQDPYRLNDLETYSNILYVMQKNSKLAYLAQFVSQIDRFRPETCCIIANYYSARQEHEKSIMYFRRALTLDKKTTNAWTLMGHEFVELSNSHAAIECYRRAVDICPRDFKAWFGLGQAYALLDMHLYSLYYFQKACTLKPWDRRIWQVLGECYSKTGNKVEAIKCYKRSIKASQTVDQNTSIYYRLAQLYEELEDLQECKKFMMKCVDVEELLEGIVTDETVKARLWLAIFEIKAGNYQLAYDYAMGVSSGTSQEIEEARMLARECRRHM

molecular target: T1, Cdc16-TAP (S. cerevisiae (endogenous in yeast)); assay: co-IP; APC/C from lysate of a CDC16-TAP yeast strain on IgG-Dynabeads, washed with 500 mM NaCl buffer; subunits seen as 32P-labelled bands after a reaction with Clb2-Cdk1-Cks1 (SDS-PAGE, autoradiography), named by previous studies

binding, binds:
B1
B2
B3
